Laboratory results from the supplement of paper PMC6143611.
Where a name gives a salt, the structure may show the parent alone. ± gives the uncertainty stated by the source. The list shows a part of the results. Part of the spread comes from offsets between plates or batches.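 A heat-shock-induced fluorescent stripe was set in larval rod outer segments at 6 dpf. Shedding distance ran from stripe to outer segment tip, measured by confocal stacks in about three fish per compound. Controls: 0.2% DMSO vehicle. Flagged compounds showed ≥20% change from same-week control, p < 0.001 (Dunnett test on mixed-effects models).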

Key:
[1] = system: Danio rerio larva rod photoreceptor outer segment; experiment: rod outer segment growth distance Dg, difference from same-week DMSO control mean; higher = more outer segment growth; conditions: 20 µM; treatment time: 4 days (6-10 dpf)
[2] = system: Danio rerio larva rod photoreceptor outer segment; experiment: rod outer segment shedding distance Ds, difference from same-week DMSO control mean; higher = less outer segment shedding; conditions: 20 µM; treatment time: 4 days (6-10 dpf)

Structure (SMILES) | rod outer segment growth distance Dg [1] [um] | rod outer segment shedding distance Ds [2] [um]
CS(=O)(=O)c1ccc([C@@H](O)[C@@H](CO)NC(=O)C(Cl)Cl)cc1 [Thiamphenicol] | -0.08 ± 0.28 | -0.1 ± 0.16
C=C1[C@H](CO)[C@@H](O)C[C@@H]1n1cnc2c(=O)[nH]c(N)nc21 [Entecavir Hydrate] | -0.24 ± 0.33 | 0.2 ± 0.29
CNC(=O)c1ccc(N2C(=S)N(c3cnc(C#N)c(C(F)(F)F)c3)C(=O)C23CCC3)cc1F | 0.68 ± 0.17 | -0.49 ± 0.12
Nc1nc(N)c(N=O)c(OCC2CCCCC2)n1 | -0.84 ± 0.2 | 0.69 ± 0.29
NC1=N[C@@]2(c3cc(NC(=O)c4ccc(F)cn4)ccc3F)COC[C@H]2CS1 | 0.36 ± 0.3 | -0.47 ± 0.32
Cc1ccc(S(=O)(=O)OCC(=O)Nc2ccc(C(=O)O)c(O)c2)cc1 | 0.03 ± 0.29 | -0.26 ± 0.2
O=C1NCCc2[nH]c(-c3ccncc3)cc21 | -0.97 ± 0.16 | -0.35 ± 0.11
COc1cccc(Nc2c(C(N)=O)cnc3c(C)cc(S(=O)(=O)c4cccc(C(=O)N(C)C)c4)cc23)c1 | -0.49 ± 0.18 | -0.24 ± 0.1
Cc1cnc(C(=O)NCCc2ccc(S(=O)(=O)NC(=O)NC3CCCCC3)cc2)cn1 [Glipizide] | 0.02 ± 0.27 | 0.01 ± 0.15
O=C1c2c(O)cc(O)cc2OC(c2ccc(O)c(O)c2)C1O (configuration not stated) [Taxifolin (Dihydroquercetin)] | -0.22 ± 0.22 | 0.57 ± 0.27
Cn1cc(-c2cnn3c(N)c(Br)c([C@@H]4CCCNC4)nc23)cn1 | -0.34 ± 0.16 | -0.44 ± 0.11
COc1cc2c(cc1Cc1cccc(Cl)c1F)c(=O)c(C(=O)O)cn2[C@H](CO)C(C)C [Elvitegravir (GS-9137, JTK-303)] | -1.07 ± 0.23 | 0.23 ± 0.25
CN1CCN(CCOc2cc(OC3CCOCC3)c3c(Nc4c(Cl)ccc5c4OCO5)ncnc3c2)CC1 [Saracatinib (AZD0530)] | -1.69 ± 0.23 | -1.07 ± 0.28
COc1ccc2c(c1)c(CC(=O)O)c(C)n2C(=O)c1ccc(Cl)cc1 [Indomethacin] | -0.11 ± 0.26 | 0.17 ± 0.13
C=CCn1c(=O)c2cnc(Nc3ccc(N4CCN(C)CC4)cc3)nc2n1-c1cccc(C(C)(C)O)n1 | -0.54 ± 0.2 | 1.16 ± 0.18
Nc1nc(Cl)nc2c1ncn2[C@@H]1O[C@H](CO)[C@@H](O)[C@@H]1F [Clofarabine] | 0.64 ± 0.18 | -0.56 ± 0.18
O=C(O)/C=C/c1ccc(Cn2ccnc2)cc1 [Ozagrel HCl] | 0.05 ± 0.21 | 0.29 ± 0.22
NNC(=O)c1ccncc1 [Isoniazid] | 0.6 ± 0.23 | -1.41 ± 0.28
COCCOc1ccc2c(c1)ncn2-c1ccc2cccc(N3CCC(N)CC3)c2n1 | -1.62 ± 0.2 | -0.6 ± 0.17

Molecules from the list above that contain an NH in an aromatic ring, in the order listed:
Structure (SMILES) | rod outer segment growth distance Dg [1] [um] | rod outer segment shedding distance Ds [2] [um]
C=C1[C@H](CO)[C@@H](O)C[C@@H]1n1cnc2c(=O)[nH]c(N)nc21 [Entecavir Hydrate] | -0.24 ± 0.33 | 0.2 ± 0.29
O=C1NCCc2[nH]c(-c3ccncc3)cc21 | -0.97 ± 0.16 | -0.35 ± 0.11

The results go on.

Structure (SMILES) | rod outer segment growth distance Dg [1] [um] | rod outer segment shedding distance Ds [2] [um]
C[C@@H](O[C@H]1OCCN(Cc2n[nH]c(=O)[nH]2)[C@H]1c1ccc(F)cc1)c1cc(C(F)(F)F)cc(C(F)(F)F)c1 [Aprepitant] | -0.17 ± 0.18 | -1.39 ± 0.23
CS(=O)(=O)c1ccc(C(=O)Nc2ccc(Cl)c(-c3ccccn3)c2)c(Cl)c1 [Vismodegib (GDC-0449)] | -0.89 ± 0.15 | -0.72 ± 0.2
C=CC(=O)Nc1cccc(Oc2nc(Nc3ccc(N4CCN(C)CC4)cc3OC)ncc2Cl)c1 | -1.03 ± 0.21 | -0.02 ± 0.21
CNC1CCCN(c2c(F)cc3c(=O)c(C(=O)O)cn(C4CC4)c3c2OC)C1 (configuration not stated) [Balofloxacin] | -0.85 ± 0.21 | -0.05 ± 0.24
CCCCCCCCCCCCc1ccc(S(=O)(=O)Nc2nncs2)cc1 | -1.3 ± 0.19 | -0.47 ± 0.2
N#Cc1ccc(C(c2ccc(C#N)cc2)n2cncn2)cc1 [Letrozole] | -0.3 ± 0.23 | 0.19 ± 0.28
COc1ccc(C(=O)CC(=O)c2ccc(C(C)(C)C)cc2)cc1 [Avobenzone] | 1.05 ± 0.26 | -0.8 ± 0.3
CCOC(=O)[C@H](CCc1ccccc1)N[C@@H](C)C(=O)N1C(=O)N(C)C[C@H]1C(=O)O [Imidapril HCl] | 0.42 ± 0.23 | 0.29 ± 0.28
O=c1cc(N2CCOCC2)oc2c1ccc1ccccc12 | -0.25 ± 0.19 | -0.15 ± 0.12
Nc1nc2c(ncn2COCCO)c(=O)[nH]1 [Aciclovir] | -0.56 ± 0.19 | -0.63 ± 0.13
CC(C)OC(=O)OCOP(=O)(CO[C@H](C)Cn1cnc2c(N)ncnc21)OCOC(=O)OC(C)C [Tenofovir Disoproxil Fumarate] | 0.1 ± 0.19 | -0.04 ± 0.3
Cc1ccccc1CN1C2=NCCN2C(=O)C2=C1CCN(Cc1ccccc1)C2 | -1.15 ± 0.2 | 0.55 ± 0.24
COc1ccccc1N1CCN(CCCNc2cc(=O)n(C)c(=O)n2C)CC1 [Urapidil HCl] | -0.99 ± 0.24 | -0.58 ± 0.26
c1ccc2[nH]c(-c3cscn3)nc2c1 [Thiabendazole] | -0.43 ± 0.22 | -0.12 ± 0.16
CC(C)C[C@@H](C(=O)N[C@H](C(=O)OC1CCCC1)c1ccccc1)[C@H](O)C(=O)NO [Tosedostat (CHR2797)] | -1.13 ± 0.2 | 0.76 ± 0.16
NC[C@H]1CC[C@H](C(=O)O)CC1 [Tranexamic Acid] | 0.86 ± 0.22 | 1.59 ± 0.29
COC(=O)Nc1nc2cc([S+]([O-])c3ccccc3)ccc2[nH]1 (configuration not stated) [Oxfendazole] | 0.17 ± 0.18 | -0.34 ± 0.28
CC1(C)O[C@@H]2C[C@H]3[C@@H]4CCC5=CC(=O)C=C[C@]5(C)[C@@]4(F)[C@@H](O)C[C@]3(C)[C@]2(C(=O)CO)O1 [Triamcinolone Acetonide] | -0.87 ± 0.24 | 0.21 ± 0.17
COc1ccc(CC2c3cc(OC)c(OC)cc3CC[N+]2(C)CCC(=O)OCCCCCOC(=O)CC[N+]2(C)CCc3cc(OC)c(OC)cc3C2Cc2ccc(OC)c(OC)c2)cc1OC (configuration not stated) [Atracurium Besylate] | -0.86 ± 0.19 | -0.66 ± 0.29

Structure (SMILES) | rod outer segment growth distance Dg [1] [um] | rod outer segment shedding distance Ds [2] [um]
NC(=O)c1ncn([C@@H]2O[C@H](CO)[C@@H](O)[C@H]2O)c1O [Mizoribine] | -0.78 ± 0.22 | -0.56 ± 0.27
CCC[C@@H]1C[C@@H](C(=O)N[C@@H]([C@H]2O[C@H](SC)[C@H](O)[C@@H](O)[C@H]2O)[C@H](C)Cl)N(C)C1 [Clindamycin HCl] | -0.9 ± 0.27 | 0.4 ± 0.27
CO[C@H]1/C=C/O[C@@]2(C)Oc3c(C)c(O)c4c(O)c(c(/C=N/N5CCN(C)CC5)c(O)c4c3C2=O)NC(=O)/C(C)=C\C=C\[C@H](C)[C@H](O)[C@@H](C)[C@@H](O)[C@@H](C)[C@H](OC(C)=O)[C@@H]1C [Rifampin] | 0 ± 0.2 | -0.21 ± 0.16
CC[N+](CC)(CC)CCOc1cccc(OCC[N+](CC)(CC)CC)c1OCC[N+](CC)(CC)CC [Gallamine Triethiodide] | 0.12 ± 0.31 | 0.02 ± 0.31
CC[C@H](Nc1ncnc2[nH]cnc12)c1nc2cccc(F)c2c(=O)n1-c1ccccc1 [CAL-101 (Idelalisib, GS-1101)] | 0.12 ± 0.2 | -0.19 ± 0.29
COc1cc(Nc2ncc(F)c(Nc3ccc4c(n3)NC(=O)C(C)(C)O4)n2)cc(OC)c1OC | -0.26 ± 0.27 | -0.19 ± 0.23
Nc1nc(=O)n([C@@H]2CS[C@H](CO)O2)cc1F [Emtricitabine] | 0.25 ± 0.26 | -0.28 ± 0.14
Cc1ccc(-n2[nH]c(C)c(N=Nc3cccc(-c4cccc(C(=O)O)c4)c3O)c2=O)cc1C [Eltrombopag] | -1.26 ± 0.25 | -0.52 ± 0.26
O=C(Nc1cccc(Nc2ncc(Br)c(NCCc3cnc[nH]3)n2)c1)N1CCCC1 | 0.17 ± 0.22 | -0.62 ± 0.2
CCC(=O)O[C@]1(C(=O)SCF)[C@H](C)C[C@H]2[C@@H]3C[C@H](F)C4=CC(=O)C=C[C@]4(C)[C@@]3(F)[C@@H](O)C[C@@]21C [Fluticasone propionate] | -1.46 ± 0.23 | -0.17 ± 0.26
CC(NC(=O)c1ccccc1/N=C/c1c(O)ccc2ccccc12)c1ccccc1 (configuration not stated) [Sirtinol] | 0.11 ± 0.17 | -0.18 ± 0.13
Cc1[nH]c(=O)c(C#N)cc1-c1ccncc1 [Milrinone] | -0.06 ± 0.22 | 0.29 ± 0.28
Cn1cnc2c(F)c(Nc3ccc(Br)cc3Cl)c(C(=O)NOCCO)cc21 [Selumetinib (AZD6244)] | -0.2 ± 0.26 | -0.51 ± 0.28
O=c1cc(-c2ccc(O)c(O)c2)oc2cc(O)cc(O)c12 [Luteolin] | 0.88 ± 0.26 | -0.12 ± 0.31
CNC(=O)c1ccc(-c2cnc3ncc(Cc4ccc5ncccc5c4)n3n2)cc1F | -0.78 ± 0.18 | -0.35 ± 0.12
NC(=O)c1cnccn1 [Pyrazinamide] | -0.32 ± 0.23 | -0.26 ± 0.18
CCC(=O)O[C@]1(C(=O)CCl)[C@@H](C)C[C@H]2[C@@H]3CCC4=CC(=O)C=C[C@]4(C)[C@@]3(F)[C@@H](O)C[C@@]21C [Clobetasol propionate] | -0.89 ± 0.29 | 0.52 ± 0.16
N#CC(=C(/N)Sc1ccccc1N)/C(C#N)=C(\N)Sc1ccccc1N | -1.79 ± 0.25 | 0.12 ± 0.27
